Source: publication PMC12431657, “Discovery and mechanistic insights of dibenzoylmethane as a broad spectrum inhibitor of coronavirus” (PLOS Pathogens, 2025)
Where a name gives a salt, the structure may show the parent alone. Read-outs that look alike come from different tables or passages of the source. Out of some 3,300 compounds screened, about 95 (3%) showed an effect of 50% or more. The list shows a part of the results.

Test system: HCoV-229E
Set-up: species or system Huh-7; HTS, protection from HCoV-229E induced cell death, luminescent cell viability (CellCounting-Lite 2.0), inhibition rate
Settings: 24 h post infection, 1 h compound pre-incubation, 10 µM, inhibitor

SMILES | 229E Inhibition rate [%] | 229E Inhibition rate (229E Inhibition rate, 24 h) [%]
COc1cc(C=CC(=O)O)cc(OC)c1O (stereo in doubt) [Sinapinic acid] | 20.1 | –
CCCCC(CC)COC(=O)C=Cc1ccc(OC)cc1 (stereo not shown) [Octinoxate] | 13.8 | –
O=CC[C@H](O)[C@H](O)CO [Thyminose] | 3.9 | –
COc1ccc(/C=C\c2cc(OC)c(OC)c(OC)c2)cc1O [Combretastatin A4] | 17.1 | –
COc1cc(CN)ccc1O [Vanillylamine] | 9.8 | –
COc1cc2oc(=O)ccc2cc1CC=C(C)C [Suberosin] | 15.6 | –
COc1cc(/C=C/c2ccc(O)cc2)cc(OC)c1 [Pterostilbene] | 13 | –
CC(C)(O)[C@@H]1CC[C@](C)([C@H]2[C@@H](O)C[C@@]3(C)[C@@H]4C[C@H](O[C@@H]5O[C@H](CO)[C@@H](O)[C@H](O)[C@H]5O)[C@H]5C(C)(C)[C@@H](O[C@@H]6OC[C@@H](O)[C@H](O)[C@H]6O[C@@H]6O[C@H](CO)[C@@H](O)[C@H](O)[C@H]6O)CC[C@@]56C[C@@]46CC[C@]23C)O1 [Astragaloside VI] | 27.8 | –
COc1ccc2c(c1OC)O[C@H]1c3ccc(O[C@@H]4O[C@H](CO)[C@@H](O)[C@H](O)[C@H]4O)cc3OC[C@@H]21 [Methylnissolin-3-O-glucoside] | 0 | –
COc1ccc([C@@H]2CC(=O)c3c(O)cc(O[C@@H]4O[C@H](CO)[C@@H](O)[C@H](O)[C@H]4O[C@@H]4O[C@@H](C)[C@H](O)[C@@H](O)[C@H]4O)cc3O2)cc1 [Poncirin] | 28.8 | –
COc1cc2c(cc1OC)-c1c(C)c3ccc(OC)c(OC)c3c[n+]1CC2 [Dehydrocorydaline] | – | 19.9
COc1cc2c(cc1OC)[C@@H]1Cc3ccc(OC)c(OC)c3CN1CC2 [Tetrahydropalmatine] | – | 13.2
C[C@@H]1O[C@@H](c2c(O)c([C@@H]3O[C@H](CO)[C@@H](O)[C@H](O)[C@H]3O)c3oc(-c4ccc(O)cc4)cc(=O)c3c2O)[C@H](O)[C@H](O)[C@H]1O [Isoviolanthin] | 30.8 | –
C[C@@H]1O[C@@H](Oc2cc(O)c3c(=O)c(O)c(-c4ccc(O)cc4)oc3c2O)[C@H](O)[C@H](O[C@H]2O[C@@H](CO)[C@H](O)[C@@H](O)[C@@H]2O)[C@H]1O [Rhodiosin] | 42.2 | –
O=C(O)Cc1ccc(O)cc1 [4-Hydroxyphenylacetic acid] | 52.1 | –
COc1c(-c2ccccc2)oc2c(ccc3occc32)c1=O [Karanjin] | 5.8 | –
CC[C@H]1CN2CC[C@@]3(C(=O)Nc4ccccc43)[C@@H]2C[C@@H]1/C(=C\OC)C(=O)OC [Isorhynchophylline] | 7.9 | –
CC(C)=CCC/C(C)=C/CC/C(C)=C/CO [Farnesol] | 16.8 | –
O=C(O)CCc1ccccc1O [3-(2-Hydroxyphenyl)propanoic acid] | 10.1 | –
COc1cc(O)c2c(=O)c(O[C@@H]3O[C@H](CO)[C@@H](O)[C@H](O)[C@H]3O)c(-c3ccc(O[C@@H]4O[C@H](CO)[C@@H](O)[C@H](O)[C@H]4O)cc3)oc2c1 [Complanatuside] | 32.5 | –

SMILES | 229E Inhibition rate [%] | 229E Inhibition rate (229E Inhibition rate, 24 h) [%]
C[C@H]1[C@H](C)CC[C@]2(C(=O)O)CC[C@]3(C)C(=CC[C@@H]4[C@@]5(C)C[C@@H](O)[C@H](O)C(C)(C)[C@@H]5CC[C@]43C)[C@H]12 [Corosolic acid] | 5.1 | –
C=C(C)[C@H](CC=C(C)C)Cc1c(O)cc(OC)c2c1O[C@H](c1ccc(O)cc1O)CC2=O [Kurarinone] | 19.7 | –
Cc1cc(=O)c2c(O)c3c(cc2o1)OC(C)(C)[C@@H](O[C@@H]1O[C@H](CO)[C@@H](O)[C@H](O)[C@H]1O)C3 [Sec-O-Glucosylhamaudol] | 0 | –
COc1c(O)cc2c(c1O)C(=O)c1c(cc(C)c(O)c1OC)C2=O [Aurantio-obtusin] | 23.9 | –
O=C(/C=C/c1ccc(O)cc1)NCCc1ccc(O)cc1 [N-p-trans-Coumaroyltyramine] | 26 | –
C[N+](C)(C)C[C@H](O)CC(=O)[O-] [L-Carnitine (hydrochloride)] | – | 8.7
COc1cc(CCC(O)CC(O)CCc2ccc(O)c(OC)c2)ccc1O (stereo not shown) [Octahydrocurcumin] | 15 | –
O=C(/C=C/c1ccc(O)c(O)c1)OC[C@@H](O)CO[C@@H]1O[C@H](CO)[C@@H](O)[C@H](O)[C@H]1O [Regaloside C] | 52.3 | –
O=C(O)c1cc(=O)cc(C(=O)O)o1 [Chelidonic acid] | 9 | –
C[C@@H]1CC[C@]2(C(=O)O)CC[C@]3(C)C(=CC[C@@H]4[C@@]5(C)C[C@@H](O)[C@@H](O)C(C)(C)[C@@H]5CC[C@]43C)[C@@H]2[C@]1(C)O [Euscaphic acid] | 13.7 | –
OC[C@H]1O[C@H](OC[C@H]2O[C@H](O[C@]3(CO)O[C@H](CO)[C@@H](O)[C@@H]3O)[C@H](O)[C@@H](O)[C@@H]2O)[C@H](O)[C@@H](O)[C@H]1O [Raffinose] | 52.1 | –
NC(=O)NC(CC(=O)O)C(=O)O (racemic) [N-Carbamoyl-DL-aspartic acid] | 10 | –
OCCc1ccc(O)c(O)c1 [Hydroxytyrosol] | 9.4 | –
COc1cc2c(cc1O)CC[C@@H]1[C@@H]2CC[C@]2(C)C(=O)CC[C@@H]12 [2-Methoxyestrone] | 10.1 | –
C=C1CC[C@@H]2[C@](C)(CO[C@@H]3O[C@H](CO)[C@@H](O)[C@H](O)[C@H]3O)CCC[C@@]2(C)[C@@H]1CCC1=CCOC1=O [Neoandrographolide] | 3.5 | –
CC(C)(O)CCc1c(O)cc(O)c2c(=O)c(O)c(-c3ccc(O)cc3)oc12 [Noricaritin] | 14.9 | –
O=C(C[C@H]1NCCC[C@@H]1O)Cn1cnc2cc(Br)c(Cl)cc2c1=O (racemic) [Halofuginone (hydrobromide)] | – | 21.7
COc1cc(C(=O)OCCCCNC(=N)N)cc(OC)c1O [Leonurine (hydrochloride)] | – | 27.9
Cc1cn([C@@H]2O[C@H](CO)[C@@H](O)[C@H]2O)c(=O)[nH]c1=O [5-Methyluridine] | 14.9 | –
C[C@H](CC[C@@H](O)C(C)(C)O)[C@H]1CC[C@@]2(C)[C@@H]3CC=C4[C@@H](CC[C@H](O[C@@H]5O[C@H](CO[C@@H]6O[C@H](CO)[C@@H](O)[C@H](O)[C@H]6O)[C@@H](O)[C@H](O)[C@H]5O)C4(C)C)[C@]3(C)[C@H](O)C[C@]12C [Mogroside II-A2] | 10 | –

SMILES | 229E Inhibition rate [%] | 229E Inhibition rate (229E Inhibition rate, 24 h) [%]
CCC(=O)OC(CC(=O)[O-])C[N+](C)(C)C (stereo not shown) [Propionylcarnitine] | 45.8 | –
CN[C@@H]1[C@@H](O)[C@@H](O[C@@H]2[C@@H](O)[C@H](O[C@H]3OC(CN)=CC[C@H]3N)[C@@H](N)C[C@H]2N)OC[C@]1(C)O [Sisomicin (sulfate)] | 9.6 | –
N[C@@H](CC(=O)O)C(=O)O [Aspartic acid (calcium)] | – | 8.5
CC[C@H]1CN2CC[C@H]1C[C@@H]2[C@@H](O)c1ccnc2ccc(OC)cc12 [Hydroquinidine] | 28.4 | –
COc1ccc2c(=O)c(-c3ccc(O)cc3)coc2c1 [Isoformononetin] | 30.1 | –
NC[C@H]1O[C@H](O[C@H]2[C@H](O)[C@@H](O[C@H]3O[C@H](CO)[C@@H](O)[C@H](N)[C@H]3O)[C@H](N)C[C@@H]2N)[C@H](O)[C@@H](O)[C@@H]1O [Kanamycin (sulfate)] | 12.2 | –
O=C(/C=C/c1ccc(O)c(O)c1)c1ccc(O)cc1O [Butein] | 44.9 | –
C[C@]12C[C@H](O)[C@H]3[C@@H](CCC4=CC(=O)CC[C@@]43C)[C@@H]1CC[C@@H]2C(=O)CO [Corticosterone] | 8.7 | –
CC(C)=CCc1c(-c2ccc(O)cc2O)oc2c([C@H]3C=C(C)C[C@@H](c4ccc(O)cc4O)[C@@H]3C(=O)c3ccc(O)cc3O)c(O)cc(O)c2c1=O [Kuwanon G] | 24.6 | –
Oc1nc(O)c2nc(O)[nH]c2n1 [Uric acid] | 6.1 | –
O=C(O)Cc1cc(I)c(Oc2cc(I)c(O)c(I)c2)c(I)c1 [Tetrac] | 10.4 | –
c1cc2c(cc1[C@H]1OC[C@H]3[C@@H]1CO[C@@H]3c1ccc3c(c1)OCO3)OCO2 [Sesamin] | 15.4 | –
O=C(O)c1cc(=O)[nH]c(=O)[nH]1 [2,6-Dioxo-1,2,3,6-tetrahydropyrimidine-4-carboxylic acid hyd] [2,6-Dioxo-1,2,3,6-tetrahydropyrimidine-4-carboxylic acid hydrate] | – | 18
COc1cc(C=O)ccc1O[C@@H]1O[C@H](CO)[C@@H](O)[C@H](O)[C@H]1O [Glucovanillin] | 19.8 | –
C=C[C@@]1(C)CC(=O)[C@]2(O)[C@@]3(C)[C@@H](O)CCC(C)(C)[C@@H]3[C@H](O)[C@H](OC(C)=O)[C@@]2(C)O1 [Forskolin] | 5.3 | –
COc1ccc(C(=O)O)cc1O [Isovanillic acid] | 0 | –
CN1Cc2c(ccc3c2OCO3)-c2ccc3cc4c(cc3c21)OCO4 [Dihydrosanguinarine] | 21.9 | –
CO[C@H]1[C@@H](O)[C@H](O[C@@H]2[C@@H](C)O[C@@H](O[C@H]3CC[C@@]4(C)[C@@H](CC[C@@]56O[C@@]57CC[C@@H](C(C)=O)[C@@]7(C)[C@H](OC(C)=O)[C@@H](OC(=O)c5ccccc5)[C@H]46)C3)C[C@H]2OC)O[C@H](C)[C@H]1O [Tenacissoside I] | 13.8 | –

Whole records, quoted from the list. Values in the order: 229E Inhibition rate [%] | 229E Inhibition rate (229E Inhibition rate, 24 h) [%]
CCC(=O)OC(CC(=O)[O-])C[N+](C)(C)C (stereo not shown) [Propionylcarnitine] is listed as 45.8 | –
NC(=O)NC(CC(=O)O)C(=O)O (racemic) [N-Carbamoyl-DL-aspartic acid] is listed as 10 | –
O=C(O)c1cc(=O)[nH]c(=O)[nH]1 [2,6-Dioxo-1,2,3,6-tetrahydropyrimidine-4-carboxylic acid hyd] [2,6-Dioxo-1,2,3,6-tetrahydropyrimidine-4-carboxylic acid hydrate] is listed as – | 18
COc1cc(/C=C/c2ccc(O)cc2)cc(OC)c1 [Pterostilbene] is listed as 13 | –
